The list is a part of this screen's results and no random one: it gathers tests that were run many times, whatever their T/C, doses with no T/C, and many T/C values between a quarter and a half above the control. Further doses and runs are listed elsewhere. T/C: endpoint of the treated group in % of that of the vehicle group. Some entries give survivors of the animals treated and no T/C: the source holds a T/C of zero for them, seemingly a mark for toxic or unscored doses. Some survivor counts are full or nearly so, which does not show that the dose was tolerated: survival well below the control is almost never listed, so the zero probably covers shortened survival too. Counts of survivors are from the toxicity check (mostly the fifth day) where no day follows; animals may have died later. Schedule codes are those of the source, taken here to give the interval after Q, in days (D) or hours (H), and the number of doses after X. For survival time, this PubChem deposit counts one and a half times the control or more as active, and values a quarter to a half above the control carry no call in these data; other NCI protocols may use other cut-offs.
Test system: P388 leukemia ip, CD2F1 mice, survival T/C
Experiment: NCI In Vivo Anticancer Drug Screen. Data for tumor model P388 Leukemia (intraperitoneal) in CD2F1 (CDF1) mice
Conditions: T/C endpoint: median survival time, higher T/C = longer survival

COC1=C(C)C(=O)C2=C(C1=O)[C@@H]1[C@@H]3Cc4c(OC(=O)CO)c(C)c(OC)c(O)c4[C@H](CNC(=O)C(C)=O)N3[C@@H](C#N)[C@H](C2)N1C
survivor count (dose: 4.5 mg/kg/injection, schedule: Q01DX005 (ip), vehicle: Klucel (hydroxypropylcellulose) (HPC)): 3 of 6
T/C (dose: 5.0 mg/kg/injection, schedule: Q01DX005 (ip), vehicle: Klucel (hydroxypropylcellulose) (HPC)): 130 % of control
survivor count (dose: 9.0 mg/kg/injection, schedule: Q01DX005 (ip), vehicle: Klucel (hydroxypropylcellulose) (HPC)): 0 of 6
survivor count (dose: 9.38 mg/kg/injection, schedule: Q01DX005 (ip), vehicle: Klucel (hydroxypropylcellulose) (HPC)): 2 of 6
survivor count (dose: 18.75 mg/kg/injection, schedule: Q01DX005 (ip), vehicle: Klucel (hydroxypropylcellulose) (HPC)): 1 of 6
survivor count (dose: 37.5 mg/kg/injection, schedule: Q01DX005 (ip), vehicle: Klucel (hydroxypropylcellulose) (HPC)): 0 of 6
survivor count (dose: 75.0 mg/kg/injection, schedule: Q01DX005 (ip), vehicle: Klucel (hydroxypropylcellulose) (HPC)): 0 of 6

Nc1cccc(C(=O)c2ccc(N)c(N)c2)c1
survivor count (dose: 240.0 mg/kg/injection, schedule: Q01DX005 (ip), vehicle: saline with Tween-80): 6 of 6

COCc1ccc(C(N)C(=O)O)cc1 (stereo unspecified)
survivor count (dose: 400.0 mg/kg/injection, schedule: Q01DX001 (ip), vehicle: saline with Tween-80): 2 of 6

C(=N\Nc1nnc(-c2ccccc2)c(-c2ccccc2)n1)/c1cccnc1
survivor count (dose: 50.0 mg/kg/injection, schedule: Q01DX005 (ip), vehicle: saline with Tween-80): 6 of 6
survivor count (dose: 100.0 mg/kg/injection, schedule: Q01DX005 (ip), vehicle: saline with Tween-80): 6 of 6
